Here are results for 18 molecules from publication PMC10163288.

First the molecules themselves.
B1: il2ra_site1_3nfp_sap_15_mot_HHH_b1_06663_af2_000000256_0001_40_55_H_._HHH_b2_00970_af2_0001_0000100005_0000001_0_0001_af2pred_0001_af2pred_1_swapped (protein)
chain: SSSSSEEAKEFDRLLREASKALEEGDEELVKELLKELEEIAEKRNSPIAKRLVKLLKEQLSSSSS
B2: il2ra_site1_1z92_normal_mot_HHH_b1_08467_af2_000000139_0001_42_58_H_._HHH_b2_05518_af2_0001_0000200008_0000001_0 (protein)
chain: SSSSDEEEEELDELAQELLELMKEGDKEEAERLARELLKLAKELNDENLFREVERTLKFLSSSSS
B3: il2ra_site1_2b5i_normal_mot_0e5a94e4a5addaac739760efb25f0f5d_0001_000000246_0001_18_32_H_._HHH_b2_07956_af2_0001_0000100002_0000001_1_af2pred_0001_af2pred (protein)
chain: SSSSSDEERELLRAIIRAIWILLARGDEELVQRLEELARRAHQENDPELLREAVEIAEEVRSSSS
B4: il2ra_site1_1z92_sap_9_mot_96901828190b971c916e7b6b8058f7b9_0001_af2_000000268_0001_39_52_H_._2db9124b7b6a1130000dd07f88946ede_0001_1_af2_0001_0000100004_000000 … (protein)
chain: SLEEQAELLLEIAPNPRALRRFLEVVLKTSGDPEDAEKFIEIVRKIARELGNEKLEEAAEEALRK
B5: il2ra_site1_2b5i_normal_mot_HHH_b2_08221_000000034_0001_1_18_H_._HHH_b1_05710_0001_0000200013_0000001_0_af2pred_dldesign_0_af2pred (protein)
chain: SSSSSPLLELLKEIEKKLKELEAKHEEEVLDPIEDAIRAALKSKDLAALEAILKELEALLKSSSS
B6: il2ra_site2_3nfp_sap_19_mot_HHH_b1_00660_af2_000000090_0001_40_57_H_._05aa7e744345dd736dff7248ed86ef87_0001_1_af2_0001_0000400012_0000001_1_0001 (protein)
chain: SSSSDKAEEYLRIALEILERAREDNDEESARSIAEVLLAAAESNRDEEVFERAEEILEELSSSSS
B7: il2ra_site2_3nfp_sap_24_mot_HHH_b2_00895_af2_000000106_0001_38_52_H_._HHH_b1_08075_0001_0000300013_0000001_0_0001 (protein)
chain: SSSDREEEIERLFEEVEELLKRGDPAEATQLLMEMAELANRLNDPELARLVLELYKLARELYSSS
B8: il2ra_site1_3nfp_normal_mot_HHH_b2_03135_af2_000000097_0001_42_55_H_._8ec5799815994991cb8689a80b606799_0001_0001_0000800052_0000001_0_af2pred_0001_af2pred (protein)
chain: SLEEILEELKEEYKDDPDIKILLELLERLARIKGDPKEAAEYLLKIAEKAGDEKAQEVLKSVLET
B9: il2ra_site2_2erj_normal_mot_HHH_b2_00789_000000198_0001_40_54_H_._HHH_b2_00575_0001_0000600037_0000001_1 (protein)
chain: SSSSSDTEEEVLELIAEAAHIQDREEVRRLLEEAEEIAERSNNELLLRYLELSLELEEKGSSSSS
B10: il2ra_site1_3nfp_normal_mot_HHH_b1_06826_000000053_0001_1_20_H_._HHH_b2_07961_0001_0000900039_0000001_0_af2pred_0001_af2pred_swapped (protein)
chain: SSSSSEELRRLRELLRQLKRLLKEGDEEEFEELFREAEKLAEELNSRAVETLLRRLKKELESSSS
B11: il2ra_site1_2b5i_normal_mot_HHH_b1_01949_af2_000000041_0001_1_19_H_._HHH_b1_05336_af2_0001_0000200009_0000001_0 (protein)
chain: SSSSSEFERVEELFREASELFRNGNPEEARKVLEEALELARETGDPTAAKDLERMLEFANSSSSS
B12: il2ra_site1_2b5i_sap_8_mot_HHH_b1_01409_af2_000000084_0001_1_19_H_._HHH_b2_02411_af2_0001_0000500029_0000001_0_0001_af2pred_0001_af2pred (protein)
chain: SSSSSELVEEAFELFREANELAKNGDPEEARRVLEEALELAERGNTKSLVRSIEWALRQLSSSSS
B13: il2ra_site1_2b5i_sap_21_mot_HHH_b1_05200_af2_000000003_0001_1_20_H_._HHH_b2_02992_0001_0000100004_0000001_0_0001_af2pred_dldesign_0_af2pred (protein)
chain: SSSSSAVREEVLRLIEEARRARAAGRRREALRLLEEAYKLASEADDEELQAEIEELAKELSSSSS
B14: il2ra_site2_2erj_normal_mot_HHH_b2_05866_000000027_0001_43_57_H_._HHH_b2_01310_0001_0000100005_0000001_1 (protein)
chain: SSSSSDHKEAWERVAELLARLAEVSEEELEKLLEEAERLAREVNDPFLERYVEFAERDVKSSSSS
B15: il2ra_site1_3nfp_normal_mot_e80b558ee5422d85aa46efdc370d0602_0001_af2_000000114_0001_54_65_H_._2a31ae49067c61b6421293497c576922_0001_0001_0000100006_0000001_0_a … (protein)
chain: SEEEEELRREAERLDPQLRILLKILERALKRRGDPRAREVIEEVVELAKKNQEEAKRLAREFLRK
B16: il2ra_site1_1z92_sap_19_mot_HHH_b1_05516_af2_000000202_0001_21_38_H_._HHH_b2_07881_0001_0000500017_0000001_0_0001_af2pred_dldesign_0_af2pred (protein)
chain: SSSSSSAFSRKVREACRLANEGKPEEAIKLLEELLAELRAAGRTSAARKVEILLKLALESSSSSS
B17: il2ra_site2_2erj_normal_mot_HHH_b1_00941_000000051_0001_45_58_H_._HHH_b2_06751_0001_0000100004_0000001_0 (protein)
chain: SSSSSDEAERRIEELLEEAKHIEDLREVFRLLNEALRLAQERDDPELLQLVLEAARERLSSSSSS
B18: il2ra_site2_3nfp_sap_23_mot_HHH_b1_08081_af2_000000020_0001_38_50_H_._HHH_b2_05949_af2_0001_0000600023_0000001_0_0001_af2pred_0001_af2pred_1 (protein)
chain: SSSSDEEKRRLLEELERIVENNDDEEFRHVASEISRLAFENEDHELFALLLELIERFENLSSSSS

Some of the results follow.

The target of the test is il2ra, P01589. The test can be described thus: yeast display titration.
Take B1: the “apparent Kd” value was “inactive: no binding seen”. The result for B2 reads “inactive: no binding seen”. The value for B3 was “inactive: no binding seen”. For the molecule B4, the “apparent Kd” value was “inactive: no binding seen”. With B5, the “apparent Kd” value is “inactive: no binding seen”. The value for B6 was “inactive: no binding seen”; that for B7 was “inactive: no binding seen”.

For B8, the “apparent Kd” value was “inactive: no binding seen”. For B9, the “apparent Kd” value is “inactive: no binding seen”.

For the molecule B10, the “apparent Kd” value is “inactive: no binding seen”. The value for B11 was “inactive: no binding seen”.

B12: the “apparent Kd” value is “inactive: no binding seen”. The result for B13 reads “inactive: no binding seen”; that for B14, “inactive: no binding seen”; that for B15, “inactive: no binding seen”. Consider B16, for which the “apparent Kd” value was “inactive: no binding seen”. With B17, the “apparent Kd” value is “inactive: no binding seen”.

Consider B18, for which the “apparent Kd” value was “inactive: no binding seen”.
